## Library screening results

Chains of the proteins cited; added tags and fusions are not shown.
UniProt E9BF75, entry or part of it: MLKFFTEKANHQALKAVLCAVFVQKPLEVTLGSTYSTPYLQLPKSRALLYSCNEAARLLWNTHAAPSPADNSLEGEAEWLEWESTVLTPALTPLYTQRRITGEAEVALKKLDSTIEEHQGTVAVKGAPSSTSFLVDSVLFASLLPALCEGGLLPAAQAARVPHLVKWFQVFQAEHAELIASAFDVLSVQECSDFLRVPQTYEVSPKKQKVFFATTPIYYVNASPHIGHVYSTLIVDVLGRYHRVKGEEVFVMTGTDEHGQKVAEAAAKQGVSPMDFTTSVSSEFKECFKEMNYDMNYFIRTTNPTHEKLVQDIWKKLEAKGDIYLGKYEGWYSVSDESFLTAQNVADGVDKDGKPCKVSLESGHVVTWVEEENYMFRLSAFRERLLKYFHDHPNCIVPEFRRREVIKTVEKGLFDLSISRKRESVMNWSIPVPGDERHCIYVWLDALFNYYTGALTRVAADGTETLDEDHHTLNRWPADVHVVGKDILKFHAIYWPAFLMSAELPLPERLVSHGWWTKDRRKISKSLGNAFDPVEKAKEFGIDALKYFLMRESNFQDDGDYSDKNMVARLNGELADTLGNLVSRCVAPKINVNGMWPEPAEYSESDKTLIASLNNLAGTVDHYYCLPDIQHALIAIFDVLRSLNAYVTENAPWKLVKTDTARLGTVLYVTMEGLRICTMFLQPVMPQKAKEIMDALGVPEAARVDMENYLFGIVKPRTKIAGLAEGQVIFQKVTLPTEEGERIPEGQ

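Methionyl-tRNA synthetase (putative), Leishmania donovani (UniProt E9BF75). Primary screen of methionyl-tRNA synthetase; the read-out is not stated. The test concentration is not given. Values are per cent inhibition. Of about 68,000 compounds tested this way, about 24 (0.035%) reached 50% or more in at least one test.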

Results are percentages, as filed. The controls that fix the scale are not given in the record; negative values are as filed. This is an unselected part of the compounds tested.

* Cc1noc(C)c1CNc1c(N2CCCC2)cccc1N1CCCC1 | 11.5%
* O=C(COCc1ccccc1)N1CCCC(n2cncn2)C1 (centres unmarked) | 11.11%
* Cc1cnc(C)c(N2CCN(Cc3ccc(-c4cc[nH]n4)o3)CC2)n1 | 23.41%
* CC(C)c1nc(CN(C)C(=O)C(O)c2ccc(Cl)cc2)cs1 (centres unmarked) | 16.1%
* Cc1ccc(C2CSCCN2CC(=O)N2CCOCC2)cc1 (centres unmarked) | 14.76%
* Cc1nc(C2CCCN2C(=O)CC2CCCC2)ncc1C(N)=O (centres unmarked) | 5.178%
* Cc1c(CN2CCCCC2)c(O)n(CCO)c(=O)c1C#N | 9.884%
* COCC(=O)N1CCO[C@H]2[C@H](OCc3cccnc3)CC[C@@H]21 | 2.222%
* COc1ccc2c(c1)c(C(=O)Nc1nnn[nH]1)cn2C(C)C | 6.469%
* CCCNC(=O)c1cc2c(nc1O)CCC(C)C2 (centres unmarked) | 5.394%
* Cc1nnc(SC2CCc3ccccc3NC2=O)n1C (centres unmarked) | 11.33%
* CC(C)(C)C(CCO)NC(=O)Nc1ccncc1 (centres unmarked) | 7.107%
* O=C1CC[C@H]2[C@H](CCN2C(=O)C2CCCO2)N1CCN1CCCC1 (some centres unmarked) | 7.884%
* CCc1n[nH]c(C(=O)N2CCN(c3ccc4ccccc4c3)CC2)c1C | 14.83%
* CC(CNS(C)(=O)=O)Oc1cccc(Cl)c1 (centres unmarked) | 7.326%
* CCn1ncc2c1CCCC2NCc1cc(OC)cc(OC)c1 (centres unmarked) | 15.49%
* Cc1nccn1CC1CCCN(C(=O)c2cnn(C)c2)C1 (centres unmarked) | 10.92%
* CN(Cc1ccco1)C(=O)NCc1ccnc(SC(C)(C)C)c1 | 4.396%
* Cc1cccc(CN2C(=O)CCC23CCN(C(=O)c2ccco2)CC3)c1 | 13.45%
* Cc1ccc(S(=O)(=O)NCC2(O)CCOc3ccccc32)s1 (centres unmarked) | 15.73%
* CC(CNC(=O)Nc1ccc(N(C)C)nc1)Cn1cccn1 (centres unmarked) | 15.04%
* O=C(Nc1ccncc1)N(CCO)Cc1ccsc1 | 17.49%
* Cc1ccc2nc(CN(Cc3ccc(C)o3)C(C)C)cc(=O)n2c1 | 19.03%
* Cc1nn(C)c(Oc2cccc(F)c2)c1NC(=O)C1CCOCC1 | 5.385%
* CC(C)c1nc(-c2cc(C(=O)NCCCO)c3ccccn23)cs1 | 10.1%
* CCOCCCn1c(NC(=O)c2scnc2C)nc2ccccc21 | 6.073%
* Cc1c(CNCc2nn(-c3ccccc3)c3c2CCC3)cc(C#N)n1C | 22.06%
* O=C(Nc1ccc(Cl)cn1)c1nn(C2CCS(=O)(=O)C2)c2c1CCCC2 (centres unmarked) | 14.16%
* O=C(O)C(c1cccc2c1OCC2)N1CCC(N2CCSCC2)CC1 (centres unmarked) | 12.11%
* CCOCC(=O)N1CCOCC2(CCN(c3ncccn3)C2)C1 (centres unmarked) | 16.24%
* CC(C)c1cc(NC(=O)Cn2cnc3ccccc3c2=O)[nH]n1 | 0.2825%
* CN1CCN(C(=O)NCCNc2ncccn2)Cc2ccccc21 | 8.571%
* O=C([C@@H]1CCO[C@@H]2CCN(CCc3ccccc3)C[C@@H]21)N1CCCC1 | 3.753%
* CCC(CNC(=O)c1cccc(S(=O)(=O)NC)c1)N1CCCC1 (centres unmarked) | 5.367%
* CCC(=O)N1Cc2nnc(C3CCOCC3)n2C(Cc2c[nH]cn2)C1 (centres unmarked) | 4.032%
* Cn1cc(Cl)c(C(=O)N2CCC(N3CCc4ccccc4C3)CC2)n1 | 13.24%
* CN(C)C(=O)CN1C[C@H]2CCN(C(=O)c3ccccc3)CC[C@H]2S1(=O)=O | 5.674%
* Cc1ccc(S(=O)(=O)N2CCC3(CC(C(=O)NCC4CC4)=NO3)C2)cc1 (centres unmarked) | 3.863%
* Cc1ccc(F)cc1NS(=O)(=O)c1cc2c(c(C(=O)O)c1)OCCO2 | 5.307%
* Cc1nnc(CN(Cc2cccc3c2OCO3)CC2CCCO2)n1C (centres unmarked) | 10.89%
* NC(=O)CN1CCN(c2ccnc3c(F)ccc(F)c23)CC1 | 3.43%
* CCn1cc(CN2CCCN(C(=O)c3sc(C)nc3C)CC2)cn1 | 13.24%
* CNC(=O)CN1CCC2(CCCN(CC3CCOC3)C2)CC1 (centres unmarked) | 16.54%
* CNc1ncc(CN(C)C(=O)c2ccccc2C2CCNC2)cn1 (centres unmarked) | 4.469%
* c1cncc(C2COC3(CCN(Cc4nccs4)CC3)C2)c1 (centres unmarked) | 13.71%
* CN(Cc1ccc(CCC(C)(C)O)cc1)CC1(CO)CC1 | 14.83%
* O=C(c1ccncn1)N1C[C@@H]2CN(Cc3cccnc3)CCO[C@@H]2C1 | 9.15%

Once more, the final 5:

- CNC(=O)CN1CCC2(CCCN(CC3CCOC3)C2)CC1 (centres unmarked) | 16.54%
- CNc1ncc(CN(C)C(=O)c2ccccc2C2CCNC2)cn1 (centres unmarked) | 4.469%
- c1cncc(C2COC3(CCN(Cc4nccs4)CC3)C2)c1 (centres unmarked) | 13.71%
- CN(Cc1ccc(CCC(C)(C)O)cc1)CC1(CO)CC1 | 14.83%
- O=C(c1ccncn1)N1C[C@@H]2CN(Cc3cccnc3)CCO[C@@H]2C1 | 9.15%

From ChEMBL document CHEMBL3988442, “University of Dundee, Small-Polar-MMV Screening Library” (2021).